Experimental data: patent publication US20250122191A1, “COMPOUNDS AS BCL-2 INHIBITORS” (Fochon Biosciences, Ltd, priority 2021, published 2025)
At least one structure is not confirmed: it was looked up by name or label, or the drawing left a doubt.

System: RS4;11-BCL-2 D103Y cells
Experiment: Cell proliferation assay (MTS), RS4;11-BCL-2 D103Y engineered cells
Assay type: cell-based
Conditions: 72 h, read-out: RS4, 11 BCL2-D103Y IC50
Text: MTS testing kit was purchased from Promega (Madison, WI, USA). The RPMI-1640, Fetal bovine serum and Penicillin-Streptomycin were purchased from BI (Biological Industries, Beit Haemek, Israel). Puromycin was purchased from Beyotime (shanghai, China). Dimethyl sulfoxide (DMSO) was purchased from Sigma (St. Louis., MO, USA). RS4;11-BCL-2 G101V (Cobioer Lot. #: CBD2021063013P4), RS4;11-BCL-2 D103E (Cobioer Lot. #: CBD2021063013P4), RS4;11-BCL-2 D103Y (Cobioer Lot. #: CBD2022012101P4) and RS4;11-BCL-2 F104L (Cobioer Lot. #: CBD2021063014P4) cells were cultured in RPMI1640 supplemented with 1 ug/mL puromycin, 100 U/mL Penicillin-Streptomycin and 10% FBS.
To investigate whether a compound is able to inhibit the activity of BCL-2 mutation in cells, a mechanism-based assay using engineered cell lines stably overexpressing BCL-2 mutation (RS4;11-BCL-2 G101V, RS4;11-BCL-2 D103E, RS4;11-BCL-2 D103Y, and RS4;11-BCL-2 F104L) was developed. In this assay, the inhibition of BCL-2 mutation was reflected by the inhibition of cell proliferation of engineered RS4;11 cells. Cells were plated into 96-well plates at optimized cell density (RS4;11-BCL-2 G101V: 5000 cells/well; RS4;11-BCL-2 D103E: 7500 cells/well; RS4;11-BCL-2 D103Y: 7500 cells/well; RS4;11-BCL-2 F104L: 5000 cells/well). […] The absorbance was measured by a microplate reader at 490 nm. IC50 values were calculated using GraphPad Prism 8.0 software.

SMILES: CC(C)c1ccccc1[C@@H]1CN(Cc2ccc(Cl)cc2)CCN1C1CC2(CCN(c3ccc(C(=O)NS(=O)(=O)c4cnc(NCC5CCC(C)(O)CC5)c([N+](=O)[O-])c4)c(Oc4cnc5[nH]cc(F)c5c4)c3)CC2)C1 (stereo partly drawn) [Example 229, 4-(2-((R)-4-(4-chlorobenzyl)-2-(2-isopropylphenyl)piperazin-1-yl)-7-azaspiro[3.5]nonan-7-yl)-2-((3-fluoro-1H-pyrrolo[2,3-b]pyridin-5-yl)oxy)-N-((6-((((1r,4r)-4-hydroxy-4-methylcyclohexyl)methyl)amino)-5-nitropyridin-3-yl)sulfonyl)benzamide]
- IC50: 10 nM
